Source: the supplement of paper PMC12067093, “Discovery and optimisation of a covalent ligand for TRIM25 and its application to targeted protein ubiquitination” (Chemical Science, 2025)
The other results are listed elsewhere or left out.

Protein sequences, listed by entry. Tags and fused reporters are not part of them. Lines headed by an entry give the natural chain unless they say otherwise; changes in a name come on top.
UniProt Q01518, whole entry, looked up: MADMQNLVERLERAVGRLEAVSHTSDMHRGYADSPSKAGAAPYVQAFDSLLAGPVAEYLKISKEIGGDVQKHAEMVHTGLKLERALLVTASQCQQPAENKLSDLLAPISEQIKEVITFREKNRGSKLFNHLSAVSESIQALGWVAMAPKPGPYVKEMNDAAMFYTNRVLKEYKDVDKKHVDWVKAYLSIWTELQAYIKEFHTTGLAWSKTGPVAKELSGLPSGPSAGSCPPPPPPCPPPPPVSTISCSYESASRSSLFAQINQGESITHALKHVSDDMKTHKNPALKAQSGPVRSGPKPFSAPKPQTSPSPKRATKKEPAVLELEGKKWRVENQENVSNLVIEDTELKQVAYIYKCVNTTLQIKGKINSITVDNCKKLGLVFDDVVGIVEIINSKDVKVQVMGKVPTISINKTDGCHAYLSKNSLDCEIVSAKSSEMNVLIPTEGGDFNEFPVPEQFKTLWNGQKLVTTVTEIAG
UniProt P27708: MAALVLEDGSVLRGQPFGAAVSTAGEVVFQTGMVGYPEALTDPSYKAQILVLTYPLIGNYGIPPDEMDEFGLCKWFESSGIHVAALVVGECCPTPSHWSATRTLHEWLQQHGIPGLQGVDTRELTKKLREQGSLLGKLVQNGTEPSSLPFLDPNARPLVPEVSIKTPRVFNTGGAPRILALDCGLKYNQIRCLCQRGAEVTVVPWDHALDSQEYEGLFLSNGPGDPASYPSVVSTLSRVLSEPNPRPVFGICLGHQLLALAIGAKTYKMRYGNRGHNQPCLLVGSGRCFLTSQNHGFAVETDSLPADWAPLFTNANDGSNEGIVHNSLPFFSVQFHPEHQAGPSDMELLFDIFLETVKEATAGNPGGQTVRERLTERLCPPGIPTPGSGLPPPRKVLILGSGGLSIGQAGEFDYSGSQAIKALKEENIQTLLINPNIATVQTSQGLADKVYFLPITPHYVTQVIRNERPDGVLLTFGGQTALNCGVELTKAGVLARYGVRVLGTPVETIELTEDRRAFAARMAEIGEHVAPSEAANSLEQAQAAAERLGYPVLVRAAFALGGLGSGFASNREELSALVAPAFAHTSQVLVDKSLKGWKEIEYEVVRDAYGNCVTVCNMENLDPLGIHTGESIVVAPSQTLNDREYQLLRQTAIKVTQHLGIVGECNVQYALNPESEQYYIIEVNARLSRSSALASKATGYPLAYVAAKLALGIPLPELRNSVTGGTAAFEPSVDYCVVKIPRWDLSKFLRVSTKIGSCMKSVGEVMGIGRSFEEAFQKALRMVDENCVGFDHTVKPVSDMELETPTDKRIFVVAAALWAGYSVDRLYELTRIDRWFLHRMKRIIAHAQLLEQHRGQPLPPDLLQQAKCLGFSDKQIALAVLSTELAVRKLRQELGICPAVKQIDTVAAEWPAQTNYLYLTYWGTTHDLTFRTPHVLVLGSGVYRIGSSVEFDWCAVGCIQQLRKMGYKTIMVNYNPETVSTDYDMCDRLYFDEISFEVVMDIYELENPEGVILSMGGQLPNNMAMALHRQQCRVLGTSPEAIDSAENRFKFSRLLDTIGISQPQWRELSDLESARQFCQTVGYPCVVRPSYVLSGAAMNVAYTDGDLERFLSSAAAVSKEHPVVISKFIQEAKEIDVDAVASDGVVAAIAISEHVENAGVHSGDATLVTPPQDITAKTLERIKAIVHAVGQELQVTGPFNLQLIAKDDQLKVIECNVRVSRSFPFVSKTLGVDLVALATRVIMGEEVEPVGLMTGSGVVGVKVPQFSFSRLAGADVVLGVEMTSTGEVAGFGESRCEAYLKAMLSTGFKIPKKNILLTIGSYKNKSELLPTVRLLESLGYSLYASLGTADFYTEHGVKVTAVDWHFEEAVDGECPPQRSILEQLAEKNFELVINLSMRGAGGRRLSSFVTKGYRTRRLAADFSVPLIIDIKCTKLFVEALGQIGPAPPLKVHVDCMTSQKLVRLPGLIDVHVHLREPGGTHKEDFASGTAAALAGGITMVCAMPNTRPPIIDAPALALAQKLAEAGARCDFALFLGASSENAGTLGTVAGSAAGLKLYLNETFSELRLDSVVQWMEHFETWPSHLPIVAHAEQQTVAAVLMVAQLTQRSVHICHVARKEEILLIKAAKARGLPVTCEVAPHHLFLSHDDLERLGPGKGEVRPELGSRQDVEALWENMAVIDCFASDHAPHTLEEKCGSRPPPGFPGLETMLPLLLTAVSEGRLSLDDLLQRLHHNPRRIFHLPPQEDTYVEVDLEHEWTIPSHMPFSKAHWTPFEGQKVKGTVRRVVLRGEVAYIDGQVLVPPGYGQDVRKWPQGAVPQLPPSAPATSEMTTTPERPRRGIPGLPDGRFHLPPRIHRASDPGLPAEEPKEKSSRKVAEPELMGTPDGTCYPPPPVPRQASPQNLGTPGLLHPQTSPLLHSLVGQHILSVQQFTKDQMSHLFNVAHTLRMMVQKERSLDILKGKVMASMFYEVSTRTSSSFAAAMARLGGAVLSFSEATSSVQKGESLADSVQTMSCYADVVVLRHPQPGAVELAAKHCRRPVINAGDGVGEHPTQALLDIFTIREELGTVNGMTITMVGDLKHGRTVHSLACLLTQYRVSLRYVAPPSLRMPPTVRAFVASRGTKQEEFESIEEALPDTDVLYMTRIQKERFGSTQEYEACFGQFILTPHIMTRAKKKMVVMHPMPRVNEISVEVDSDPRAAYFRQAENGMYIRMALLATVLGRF
UniProt Q13137: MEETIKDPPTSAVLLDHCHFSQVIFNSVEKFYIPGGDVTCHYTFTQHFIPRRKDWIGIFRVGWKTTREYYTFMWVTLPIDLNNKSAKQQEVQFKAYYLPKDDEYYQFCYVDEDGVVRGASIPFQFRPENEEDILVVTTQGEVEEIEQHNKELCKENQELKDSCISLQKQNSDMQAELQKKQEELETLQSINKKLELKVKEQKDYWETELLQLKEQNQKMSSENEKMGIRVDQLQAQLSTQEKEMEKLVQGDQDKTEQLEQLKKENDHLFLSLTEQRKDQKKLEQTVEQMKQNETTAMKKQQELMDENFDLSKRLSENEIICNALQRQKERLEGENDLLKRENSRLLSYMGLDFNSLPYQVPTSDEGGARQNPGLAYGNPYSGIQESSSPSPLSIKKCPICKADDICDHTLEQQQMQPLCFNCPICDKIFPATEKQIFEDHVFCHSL
UniProt P01024, whole entry, looked up: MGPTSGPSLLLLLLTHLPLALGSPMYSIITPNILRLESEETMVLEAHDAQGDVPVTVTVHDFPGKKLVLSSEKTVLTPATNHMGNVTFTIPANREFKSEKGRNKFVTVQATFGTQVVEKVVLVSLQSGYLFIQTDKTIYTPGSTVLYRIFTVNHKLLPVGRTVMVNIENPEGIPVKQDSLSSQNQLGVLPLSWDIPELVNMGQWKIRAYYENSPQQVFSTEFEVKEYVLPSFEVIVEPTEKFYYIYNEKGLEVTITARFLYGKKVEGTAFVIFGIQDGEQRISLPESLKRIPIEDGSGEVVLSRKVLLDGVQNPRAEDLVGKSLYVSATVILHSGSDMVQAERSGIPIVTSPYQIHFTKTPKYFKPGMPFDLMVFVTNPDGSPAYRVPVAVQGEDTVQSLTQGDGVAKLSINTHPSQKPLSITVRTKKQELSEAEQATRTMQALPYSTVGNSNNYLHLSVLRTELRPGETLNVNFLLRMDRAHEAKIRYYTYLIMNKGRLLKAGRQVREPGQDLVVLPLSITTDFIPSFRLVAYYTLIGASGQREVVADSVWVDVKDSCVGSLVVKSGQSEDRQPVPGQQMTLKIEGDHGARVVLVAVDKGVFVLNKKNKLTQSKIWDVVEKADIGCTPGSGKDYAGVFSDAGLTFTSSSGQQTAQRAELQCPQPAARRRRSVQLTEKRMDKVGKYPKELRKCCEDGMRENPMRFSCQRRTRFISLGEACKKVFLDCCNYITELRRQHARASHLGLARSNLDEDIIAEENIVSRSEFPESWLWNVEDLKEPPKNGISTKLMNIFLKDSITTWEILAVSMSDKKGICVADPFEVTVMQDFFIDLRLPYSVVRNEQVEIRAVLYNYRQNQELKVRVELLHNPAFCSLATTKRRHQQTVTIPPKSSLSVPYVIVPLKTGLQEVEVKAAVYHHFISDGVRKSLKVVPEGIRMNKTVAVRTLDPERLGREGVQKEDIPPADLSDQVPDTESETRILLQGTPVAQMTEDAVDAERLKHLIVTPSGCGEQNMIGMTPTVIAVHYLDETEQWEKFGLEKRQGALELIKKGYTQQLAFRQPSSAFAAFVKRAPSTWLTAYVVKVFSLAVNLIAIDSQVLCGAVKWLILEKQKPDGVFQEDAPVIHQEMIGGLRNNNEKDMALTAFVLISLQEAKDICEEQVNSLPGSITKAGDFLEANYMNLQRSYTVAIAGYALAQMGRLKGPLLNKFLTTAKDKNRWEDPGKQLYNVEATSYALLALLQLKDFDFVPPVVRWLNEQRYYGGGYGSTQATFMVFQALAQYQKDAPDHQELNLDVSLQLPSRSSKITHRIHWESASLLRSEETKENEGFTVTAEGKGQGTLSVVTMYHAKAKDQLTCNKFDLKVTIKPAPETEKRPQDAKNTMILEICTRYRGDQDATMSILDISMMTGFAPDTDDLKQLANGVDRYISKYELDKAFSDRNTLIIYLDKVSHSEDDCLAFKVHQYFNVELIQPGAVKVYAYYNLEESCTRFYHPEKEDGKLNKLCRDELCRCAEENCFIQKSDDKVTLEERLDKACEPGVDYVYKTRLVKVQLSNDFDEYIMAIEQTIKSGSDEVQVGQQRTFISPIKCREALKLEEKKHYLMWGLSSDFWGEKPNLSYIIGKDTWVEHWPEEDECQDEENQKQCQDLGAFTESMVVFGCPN
UniProt P07360, whole entry: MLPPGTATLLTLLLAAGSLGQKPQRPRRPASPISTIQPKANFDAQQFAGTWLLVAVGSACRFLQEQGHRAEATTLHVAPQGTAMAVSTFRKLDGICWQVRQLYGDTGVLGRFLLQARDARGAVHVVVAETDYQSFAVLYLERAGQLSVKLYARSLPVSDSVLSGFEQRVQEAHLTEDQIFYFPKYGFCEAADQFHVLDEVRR
UniProt Q8N1Q1: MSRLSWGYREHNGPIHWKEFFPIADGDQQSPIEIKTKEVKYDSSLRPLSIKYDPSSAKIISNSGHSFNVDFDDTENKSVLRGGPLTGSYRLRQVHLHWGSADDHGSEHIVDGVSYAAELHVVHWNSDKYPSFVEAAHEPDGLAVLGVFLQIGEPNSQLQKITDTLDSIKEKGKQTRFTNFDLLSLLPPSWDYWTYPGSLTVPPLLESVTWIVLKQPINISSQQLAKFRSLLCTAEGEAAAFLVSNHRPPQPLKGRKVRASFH
UniProt Q8TDN6: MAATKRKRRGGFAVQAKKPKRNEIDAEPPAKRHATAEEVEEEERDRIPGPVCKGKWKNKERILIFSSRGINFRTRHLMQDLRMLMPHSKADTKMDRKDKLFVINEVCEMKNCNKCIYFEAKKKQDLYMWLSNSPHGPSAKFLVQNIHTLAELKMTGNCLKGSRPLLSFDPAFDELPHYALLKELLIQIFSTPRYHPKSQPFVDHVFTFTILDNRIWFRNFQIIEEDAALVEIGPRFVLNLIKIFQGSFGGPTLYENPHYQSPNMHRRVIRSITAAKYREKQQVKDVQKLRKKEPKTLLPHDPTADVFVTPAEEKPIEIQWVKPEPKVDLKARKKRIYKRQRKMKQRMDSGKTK

Compound: Cc1cc(ccc1-c1ccccc1)C(=O)N1CCCN(CC1)C(=O)CCl [compound 10]
Experiment: probe-labelled cysteine peptide fold change vs DMSO (competition) (log2 fold change); higher = less target engagement (more negative = stronger competition)
Conditions: THP-1, incubation time: 4 h
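Further: competitive profiling in live THP-1 cells: cysteine peptides tagged with an iodoacetamide desthiobiotin (IA-DTB) probe, intensity after compound treatment relative to DMSO-treated cells.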

Row | Target | probe-labelled cysteine peptide fold change (10 µM) | probe-labelled cysteine peptide fold change (50 µM)
1 | CAND1_Q86VP6_356_CLDAVVSTR (UniProt Q86VP6) | 0.0918 | 0.163
2 | C17orf75_Q9HAS0_182_NNMNCEAR (UniProt Q9HAS0) | -0.303 | -0.523
3 | BRD8_Q9H0E9-2_941_CAIEADMK (UniProt Q9H0E9) | -0.376 | -0.241
4 | CACUL1_Q86Y37_362_AGDELAYNSSSACASSR (UniProt Q86Y37) | -0.307 | -0.642
5 | CAP1_Q01518_375_INSITVDNCKK (UniProt Q01518) | 0.0183 | -0.152
6 | CAD_P27708_897_QELGICPAVK (UniProt P27708) | 0.0277 | -0.0532
7 | BRF1_Q92994_106_HIHHLGNQLQLNQHCLDTAFNFFK (UniProt Q92994) | -0.0985 | -0.404
8 | C15orf40_Q8WUR7_62_GCVTIAIHAK (UniProt Q8WUR7) | 0.168 | -0.0437
9 | CALCOCO2_Q13137_321_LSENEIICNALQR (UniProt Q13137) | -0.106 | -0.107
10 | BUB1B_O60566_767_EIELGNEDYCIKR (UniProt O60566) | 0.0723 | -0.437
11 | C1orf123_Q9NWV4_102_TIVEFECR (UniProt Q9NWV4) | -0.00571 | -0.0169
12 | BTAF1_O14981_1626_QLLLDCGLGNGSTSESGTESVVAQHR (UniProt O14981) | 0.382 | 0.287
13 | C3_P01024_1637_DTWVEHWPEEDECQDEENQK (UniProt P01024) | -0.437 | -0.17
14 | C5orf51_A6NDU8_268_YVSVCEGPLK (UniProt A6NDU8) | -0.0462 | 0.0945
15 | BRD4_O60885_607_CKPMSYEEK (UniProt O60885) | 0.0999 | -0.173
16 | C9orf78_Q9NZ63_145_NAEDCLYELPENIR (UniProt Q9NZ63) | -0.158 | -0.119
17 | CAMK2B_Q13554_116_EYYSEADASHCIQQILEAVLHCHQMGVVHR (UniProt Q13554) | -0.0191 | 0.141
18 | C3_P01024_873_VRVELLHNPAFCSLATTK (UniProt P01024) | -0.489 | -0.6
19 | BRD1_O95696_294_TDDDRWGHVVCALWIPEVGFANTVFIEPIDGVR (UniProt O95696) | -0.0156 | 0.0676
20 | C8G_P07360_188_YGFCEAADQFHVLDEVR (UniProt P07360) | -0.615 | -0.459
21 | CA13_Q8N1Q1_232_SLLCTAEGEAAAFLVSNHRPPQPLK (UniProt Q8N1Q1) | 0.0791 | 0.353
22 | CALCOCO2_Q13137_163_DSCISLQK (UniProt Q13137) | -0.176 | -0.236
23 | CAD_P27708_1636_GLPVTCEVAPHHLFLSHDDLER (UniProt P27708) | -0.08 | -0.0722
24 | CAMK2D_Q13557_7_ASTTTCTR (UniProt Q13557) | 0.473 | 0.378
25 | CAD_P27708_986_TIMVNYNPETVSTDYDMCDR (UniProt P27708) | 0.161 | 0.356
26 | C12orf29_Q8N999_302_CLFNHFLK (UniProt Q8N999) | 0.028 | -0.656
27 | C5orf51_A6NDU8_244_YCADQQPENHEVDTSVSGAGCTTYKEPLDFR (UniProt A6NDU8) | -0.12 | -0.542

An excerpt taken from the entries so far:
Row | Target | probe-labelled cysteine peptide fold change (10 µM) | probe-labelled cysteine peptide fold change (50 µM)
19 | BRD1_O95696_294_TDDDRWGHVVCALWIPEVGFANTVFIEPIDGVR (UniProt O95696) | -0.0156 | 0.0676
20 | C8G_P07360_188_YGFCEAADQFHVLDEVR (UniProt P07360) | -0.615 | -0.459
21 | CA13_Q8N1Q1_232_SLLCTAEGEAAAFLVSNHRPPQPLK (UniProt Q8N1Q1) | 0.0791 | 0.353
22 | CALCOCO2_Q13137_163_DSCISLQK (UniProt Q13137) | -0.176 | -0.236

Additional records:

Row | Target | probe-labelled cysteine peptide fold change (10 µM) | probe-labelled cysteine peptide fold change (50 µM)
28 | CAD_P27708_2016_GESLADSVQTMSCYADVVVLR (UniProt P27708) | 0.0676 | -0.127
29 | BZW2_Q9Y6E2_270_LSQECPIK (UniProt Q9Y6E2) | -0.0657 | -0.258
30 | C7_P10643_743_RILPLTVCK (UniProt P10643) | -0.416 | -0.508
31 | CAMSAP1_Q5T5Y3_1507_CDANHYIILFR (UniProt Q5T5Y3) | -0.0167 | -0.118
32 | CAD_P27708_1613_SVHICHVAR (UniProt P27708) | 0.0918 | 0.483
33 | C2CD2_Q9Y426_244_EAQNLQCAASTAQESCPPKPPR (UniProt Q9Y426) | -0.208 | -0.189
34 | C3orf38_Q5JPI3-2_12_SGLSFSEMEGCR (UniProt Q5JPI3) | 0.0149 | 0.272
35 | BROX_Q5VW32_52_LLELFTDLSCNPEMMK (UniProt Q5VW32) | -0.00582 | -0.0054
36 | C11orf54_Q9H0W9_3_ACAEFSFHVPSLEELAGVMQK (UniProt Q9H0W9) | 0.0216 | -0.257
37 | CAMK2G_Q13555_290_QETVECLR (UniProt Q13555) | -0.0595 | 0.101
38 | C3orf58_Q8NDZ4_170_LLTPEAVEGWSDLVHCPSQR (UniProt Q8NDZ4) | -0.229 | -0.062
39 | BRIX1_Q8TDN6_52_IPGPVCK (UniProt Q8TDN6) | -0.292 | -0.284
40 | C16orf62_Q7Z3J2_614_HQQEPTKDPVILNALLHVCK (UniProt Q7Z3J2) | 0.235 | 0.0739
41 | C11orf54_Q9H0W9_187_TGPLNFVTCMR (UniProt Q9H0W9) | 0.136 | -0.211
42 | CAP1_Q01518_375_GKINSITVDNCKK (UniProt Q01518) | -0.169 | -0.947
43 | BUB1_O43683_1013_NEGGECKPEGLFR (UniProt O43683) | 0.156 | 0.12
44 | BRD7_Q9NPI1_107_DLQCHAPVR (UniProt Q9NPI1) | -0.177 | 0.0455
45 | C12orf10_Q9HB07_56_IGTHNGTFHCDEALACALLR (UniProt Q9HB07) | -0.136 | -0.185
46 | BSG_P35613_203_VDSDDQWGEYSCVFLPEPMGTANIQLHGPPR (UniProt P35613) | 0.157 | 0.225
47 | BRCA1_P38398_712_CSNTSELK (UniProt P38398) | 0.119 | 0.0735
48 | CAMSAP1_Q5T5Y3_47_IAANLQWICAK (UniProt Q5T5Y3) | 0.165 | 0.000722
49 | C1orf50_Q9BV19_144_EWGTSCPHDFLGAYK (UniProt Q9BV19) | 0.181 | 0.135
50 | BRIX1_Q8TDN6_107_LFVINEVCEMK (UniProt Q8TDN6) | 0.0119 | -0.148
51 | C16orf62_Q7Z3J2_665_SMFCNLEPVLVQLIHSVNR (UniProt Q7Z3J2) | -0.0896 | 0.00123
52 | CAMK2D_Q13557_116_EYYSEADASHCIQQILESVNHCHLNGIVHR (UniProt Q13557) | 0.225 | -0.0231
53 | C12orf49_Q9H741_93_HLITDELGYVCER (UniProt Q9H741) | -0.0438 | -0.0416
54 | BTN2A1_Q7KYR7_475_SHIYTCPR (UniProt Q7KYR7) | 0.103 | -0.13
